This experiment has as its target HA-Gli2(P1-6A), overexpressed in HEK293T (UniProt Q0VGT2). In words: co-IP; HEK293T cells co-transfected with HA-tagged Gli construct and EGFP-tagged partner(s) (Sec3, Sec5, Sec8 together in Fig. 2c, f; single subunits in Fig. 2d; Rab/Arf in Fig. 7a); anti-HA magnetic beads; lysis buffer 50 mM Tris pH 7.4, 1% NP-40, 150 mM NaCl, 0.25% sodium deoxycholate; overnight 4 °C; western blot. On the technique in general: A western blot detects proteins with antibodies after separation by electrophoresis.

Results are given in words; binding and its absence hold for the method and conditions named. In cells and extracts the contact can be indirect. A result given as binding can be weak or reduced; the word gives no strength. Tags and fused reporters may be left off the sequences shown.

Consider “EGFP-tagged Arf4 (from UniProt P61750 1-180)”, for which the binding entry is “binds”.
To “EGFP-tagged Rab18 (from UniProt P35293 1-206)” belongs “binds”.

B1: EGFP-tagged Rab23 (protein, UniProt P35288 1-237)
chain: MLEEDMEVAIKMVVVGNGAVGKSSMIQRYCKGIFTKDYKKTIGVDFLERQIQVNDEDVRLMLWDTAGQEEFDAITKAYYRGAQACVLVFSTTDRESFEAISSWREKVVAEVGDIPTALVQNKIDLLDDSCIKNEEAEGLAKRLKLRFYRTSVKEDLNVSEVFKYLAEKHLQKLKQQITEDPEQTHSSSNKIGVFNASVGSHLGQNSSSLNGGDVINLRPNKQRTKRTRNPFSSCSVP
As for B1, the binding entry is recorded as “binds”.

These data come from PMC10879184.
